Measurements: US9458217B2, “Methods of managing graft versus host disease” (EMORY UNIVERSITY, priority 2013, dated 2016)
“Also recorded” adds a separate entry of the source. Part of at least one peptide drawing is inferred or uncertain, most often the ends. Where no end group is shown, it is not given here.

Legend:
cross-dressed CD11c+ APC = assay: Drug inhibition of trogocytosis in MLR (frequency of cross-dressed CD11c+ APC by flow cytometry); format: cell-based, mice
Description: The frequency of cross-dressed CD11c+ APC on day 6 of MLR was assessed by flow cytometry.
Whether drugs can inhibit cross-dressed APCs from facilitating antigen presentation to donor T cells and prevent GVHD following allo-HSCT was tested. Cross-dressed donor CD11c+ APCs were generated in vivo following allo-HSCT (FIG. 1).

[1] = system: allo-transplant recipients; assay: MHC-fully mis-matched allogeneic transplant model (GvHD); format: in vivo, mice; details: B16→B10.BR model; 10 ug subcutaneous daily, day −1 through day +5 (FIG. 4A)
allo-reactive T cells = assay: Metabolic activity of allo-reactive T cells in MLR by bio-luminescence imaging; format: cell-based; details: added every day at 1, 3 and 10 micromolar; bioluminescent imaging on Day 3 (FIG. 5)

Which results are given for “KPRRPYTDNYTRLRKQMAVKKYLNSILN-NH2 [VIPHyb]”?
exchange of plasma membrane fragments (trogocytosis; frequency of cross-dressed CD11c+ APC) (cross-dressed CD11c+ APC; in vitro generated cross-dressed CD11c+ cells, day 6 of MLR, flow cytometry (FIG. 3)): inhibited; semi-direct presentation of allo-antigen to T cells (cross-dressed CD11c+ APC; summary statement of the data): reduce semi-direct presentation; GvHD in allo-transplant recipients [1]: does not increase GvHD; alloreactivity (metabolic activity of allo-reactive T cells in MLR) (allo-reactive T cells): reduced alloreactivity; also recorded: reduce allo-reactivity
